The values that follow come from article PMC9959666.

For the assay, the target named is T1, myc-ERR1 (estrogen related receptor alpha) (UniProt P11474).
T1 sequence: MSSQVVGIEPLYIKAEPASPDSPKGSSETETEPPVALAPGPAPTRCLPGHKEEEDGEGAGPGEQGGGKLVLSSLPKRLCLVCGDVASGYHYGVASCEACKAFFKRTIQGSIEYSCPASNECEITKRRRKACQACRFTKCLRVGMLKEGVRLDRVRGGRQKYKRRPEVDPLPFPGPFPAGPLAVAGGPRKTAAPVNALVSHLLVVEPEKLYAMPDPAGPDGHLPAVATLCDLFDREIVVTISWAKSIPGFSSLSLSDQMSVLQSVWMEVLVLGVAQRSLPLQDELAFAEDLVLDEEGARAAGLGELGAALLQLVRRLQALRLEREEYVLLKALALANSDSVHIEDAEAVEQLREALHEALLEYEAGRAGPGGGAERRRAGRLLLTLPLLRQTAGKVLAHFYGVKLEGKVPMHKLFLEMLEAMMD
Kind of assay: co-IP; myc-ERR1 and the GFP-tagged kinesin fragment co-expressed in HEK293T cells; lysed one day after transfection (50 mM HEPES pH 7.4, 150 mM NaCl, 1.5 mM MgCl2, 0.5 mM CaCl2, 10% glycerol, 1% Triton-X100); lysate incubated overnight at 4 °C with anti-myc antibody, Protein-G sepharose beads; immunoblot.

No constants are given. Whether binding was seen depends on the method and setting. In cells and extracts the contact can be indirect. A result given as binding can be weak or reduced; the word gives no strength. Tags and fused reporters may be left off the sequences shown.

“GFP-KIF17-NR (KIF17 nuclear receptor box motif fragment) (human) (domain or fragment)”: the binding entry is “binds”.
